This note sets out measurements from paper PMC11890758.

These are yes or no findings as the source states them, for the method shown. Binding seen in cells or lysates may run through a third protein. A result given as binding can be weak or reduced; the word gives no strength. Tags and fused reporters may be left off the sequences shown.

The target in the assay is T1, GST-LKB1 (UniProt Q15831).
T1 sequence: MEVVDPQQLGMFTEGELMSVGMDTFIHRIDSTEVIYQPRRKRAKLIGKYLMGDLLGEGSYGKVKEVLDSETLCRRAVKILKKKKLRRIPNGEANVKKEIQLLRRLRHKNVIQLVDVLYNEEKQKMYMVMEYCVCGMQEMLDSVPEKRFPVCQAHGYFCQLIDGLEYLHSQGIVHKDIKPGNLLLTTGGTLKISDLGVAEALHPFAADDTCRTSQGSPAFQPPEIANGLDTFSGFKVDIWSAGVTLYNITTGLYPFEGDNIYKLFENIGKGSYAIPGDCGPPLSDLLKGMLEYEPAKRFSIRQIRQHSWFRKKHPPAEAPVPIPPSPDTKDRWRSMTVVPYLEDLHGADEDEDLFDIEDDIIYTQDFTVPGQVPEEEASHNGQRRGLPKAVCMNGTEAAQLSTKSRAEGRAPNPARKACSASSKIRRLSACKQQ
Put plainly: pull-down; GST pull-down from lysate of HEK293T cells co-expressing a GST-tagged and a Venus-Flag-tagged protein; 1% NP-40 lysis buffer (20 mM Tris-HCl, 150 mM NaCl, 5% glycerol, 2 mM EDTA), glutathione sepharose beads, 4 C for 2 h, immunoblot; cells serum-starved overnight for Fig. 1H.

Regarding “Venus-Flag-tagged cIAP1 N-terminal truncation (N) (human) (domain or fragment)”, the binding entry is reported as “binds”.
